The values below come from patent US7323541B2 (Takeda Pharmaceutical Company Limited, priority 2001, dated 2008).

The data set can be described thus: Fmoc solid-phase peptide synthesis; 2-chlorotrityl resin; DCC/HOBt; PyAOP/HOAt/DIEA for pseudoproline dipeptide. The note with it: whole synthesis, scale 0.25 mmol.

Where no end group is shown, it is not given here.

For SFRNGVGSGVKKTSFRRA, for the setting “acetate”, the isolated mass is on record as 107.0 mg. This sequence displayed a crude mass (acetate (rat TGR23-2 ligand (1-18))) of 219.4 mg.
